Laboratory results published in patent publication US10941063B2 (priority 2015, dated 2021).
Entries after “also recorded” stand apart in the source; their conditions may differ. Where two headings read alike, the source gives them in different places.

Tests used:
[1] = Protocol: Hydrogen peroxide is an inexpensive oxidant for H2S removal, but is slow acting relative to several other oxidants. Shortening the reaction time or contact time required in a water treatment process reduces the volume of contact basins or increases the throughput of a treatment process such as that described in Example 17.
A portion of the 80 mg/L H2S water was treated by mixing into it a 17% wt/wt solution of hydrogen peroxide such that the molar ratio of hydrogen peroxide to sulfide was about 5.7:1. Hydrogen peroxide was added in excess such that it was not a limiting reagent in the oxidation reaction. The ORP and pH of the water was monitored to track the oxidation rate of H2S. FIG. 3 depicts the progression of ORP and pH over time during oxidation.
A second portion of the 80 mg/L H2S water was treated by mixing into it a 17% wt/wt solution of hydrogen peroxide such that the molar ratio of hydrogen peroxide to sulfide was about 5.7:1. A small portion of muriatic acid (about 34% hydrochloric acid solution) was added with the hydrogen peroxide to slightly lower the pH to between 6.5 and 7.0 thereby converting at least a portion of the NaHS to H2S and accelerate the reaction rate. FIG. 4 depicts the progression of ORP and pH over time during oxidation.

[2] = Removal of sulfide from high H2S water, two oxidation-clarification steps (Example 17)
[3] = Oxidation of H2S in production water (Example 11, HACH methylene blue method)
[4] = Gel breaking: depolymerization and break down of guar gum (viscosity); details: guar mixture 10 g/L, 35-40° C.
[5] = H2S reduction at crude oil rail depot (Example 8); details: about 40 ppm oxidant
[6] = H2S removal from production well fluids and gas at heater treater and gunbarrel (Example 7)
[7] = second treatment, about 15 mg/L oxidant, crude oil exiting heater treaters

In the case of `OO` [hydrogen peroxide], the “hydrogen sulfide in the mixture after oxidation” value ([1]; hydrogen peroxide 5.7:1, no acid) is reported as “No detectable”, the “hydrogen sulfide in the mixture after oxidation” value ([1]; hydrogen peroxide 5.7:1 with muriatic acid) is reported as “No detectable” and the “H2S (as S^2−) in supernatant” value ([2]; first step: 17% hydrogen peroxide, 1.9:1 molar oxidant to sulfide, 10 minutes, aluminum coagulant and anionic polymer, initial 390 mg/L) is reported as “about 60 mg/L”. It also gave a pH of supernatant ([2]; first step: hydrogen peroxide 1.9:1, then coagulant and polymer) of 7.6.
For “sodium peracetate [sodium peracetate oxidant solution]”, the residual oxidant ([3]; after total dose 360 mg/L sodium peracetate) was “no residual oxidant”, the final sulfide concentration ([3]; total dose 360 mg/L (3.68 mM) sodium peracetate, initial sulfide 150 mg/L, pH 6.7) was 58 mg/L and the pH after treatment ([3]; total dose 360 mg/L sodium peracetate, initial pH 6.7) was 7.2. The “Viscosity at 2 Hour Contact Time” value ([4]; oxidant conc. 65 mg/L) was “no visible effect on viscosity; also recorded: retained its original viscosity; also recorded: same as initial”, the “Viscosity at 2 Hour Contact Time” value ([4]; oxidant conc. 220 mg/L) was “small reduction in viscosity; also recorded: slightly reduced” and the “Viscosity at 2 Hour Contact Time” value ([4]; oxidant conc. 440 mg/L) was “significantly reduce the viscosity; also recorded: rapid loss of viscosity; also recorded: very reduced”. The “hydrogen sulfide concentration in the liquid phase” value ([5]; crude oil with about 20-30 ppm H2S) was “less than 5 ppm”, the “vapor phase potential (e.g., in cargo head space) of hydrogen sulfide” value ([5]; crude oil, at 140° F.) was “less than 70 ppm” and the Sulfate ([2]; after second step (sodium peracetate 1.6:1), untreated 1000 mg/L) was 1000 mg/L. The H2S in supernatant ([2]; second step on hydrogen peroxide-treated supernatant: 2.1% sodium peracetate solution, 1.6:1 molar oxidant to sulfide, 10 minutes, coagulant and polymer) was “less than 5 mg/L as S′”, the pH of supernatant ([2]; second step: sodium peracetate 1.6:1 after hydrogen peroxide step) was 6.9 and the “hydrogen sulfide concentration in the liquid phase” value ([6]; first treatment, about 50 mg/L oxidant in liquid phase entering heater treaters) was at most 2 ppm. For the same compound, the “hydrogen sulfide concentration in the gas, vapor phase (gas phase)” value ([6]; first treatment, about 50 mg/L oxidant in liquid phase entering heater treaters, fluids about 30 mg/L H2S) was “less than 70 ppm”, the “hydrogen sulfide concentration in the gas, vapor phase” value [6, 7] was “less than 10 ppm” and the “hydrogen sulfide concentration in the liquid phase” value [6, 7] was at most 0.1 ppm.
